{
  "sequences": {"note": "Amino acid sequences for entries named in this document (tags omitted). A change or cut given only in a name is not applied to a line headed by its entry.", "UniProt P20273": "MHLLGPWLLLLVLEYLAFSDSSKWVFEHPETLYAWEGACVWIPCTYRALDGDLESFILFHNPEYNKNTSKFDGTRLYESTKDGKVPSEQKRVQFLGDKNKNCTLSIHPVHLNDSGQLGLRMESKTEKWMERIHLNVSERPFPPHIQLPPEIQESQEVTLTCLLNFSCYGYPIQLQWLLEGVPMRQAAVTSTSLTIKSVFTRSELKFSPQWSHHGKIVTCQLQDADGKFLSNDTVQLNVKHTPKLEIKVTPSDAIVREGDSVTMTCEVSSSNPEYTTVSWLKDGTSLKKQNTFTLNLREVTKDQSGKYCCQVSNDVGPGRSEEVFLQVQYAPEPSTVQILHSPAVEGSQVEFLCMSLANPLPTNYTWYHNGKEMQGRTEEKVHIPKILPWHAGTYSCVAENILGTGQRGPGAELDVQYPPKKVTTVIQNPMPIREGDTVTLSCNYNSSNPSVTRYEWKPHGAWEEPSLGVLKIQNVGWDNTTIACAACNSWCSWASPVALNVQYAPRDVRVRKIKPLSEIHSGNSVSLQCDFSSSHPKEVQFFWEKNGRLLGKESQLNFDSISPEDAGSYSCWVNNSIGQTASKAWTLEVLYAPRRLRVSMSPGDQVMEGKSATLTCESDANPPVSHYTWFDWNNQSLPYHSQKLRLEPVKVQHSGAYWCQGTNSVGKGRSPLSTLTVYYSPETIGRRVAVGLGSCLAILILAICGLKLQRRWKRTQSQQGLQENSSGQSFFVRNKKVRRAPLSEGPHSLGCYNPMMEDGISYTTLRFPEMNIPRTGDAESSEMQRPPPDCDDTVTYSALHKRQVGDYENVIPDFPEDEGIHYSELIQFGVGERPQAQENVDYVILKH"},
  "source": "patent US20210017280A1",
  "binders": {"B1": {"name": "anti-CD22 CAR (clone 2) conjugated to biotin, used as detecting antibody (antibody, V domains shown)", "VH": "QVQLVESGGGLVQPGGSLRLSCAASGFTFSNYAMSWVRQAPGKGLEWVSSISGSGGSTYYADSVKGRFTISRDTSKNTLYLQMNSLRAEDTAVYYCARYGSAAWMDSWGQGTLVTVSS", "VL": "DIQLTQSPSSLSTSVGDRVTITCQASHDIRNYLNWYQQKPGKAPNLLIYAASNLQTGVPSRFSGRGSGTDFTLTISSLQPEDIATYYCQQYDGLPLTFGQGTRLEIKR", "modifications": "conjugated to biotin (chain and site not stated)"}},
  "biological_target": "full-length human CD22 (human) (UniProt P20273)",
  "experiment": "flow cytometry competition on K562+CD22 cells",
  "note": "These are yes or no findings as the source states them, for the method shown. Some results given as binding are weak or reduced against the parent protein; the word gives no strength.",
  "data": [
    {"binder": "B1", "values": [
      {"measurement": "binding", "result": "binds"}
    ]}
  ]
}
